Laboratory results published in PubChem BioAssay AID652115 (Broad Institute, 2013).
Hit rate of the full screen: of about 330,000 compounds, about 3,800 (1.2%) were called active. The shares of active, inactive and inconclusive entries below differ from those in the screen. Rule as the data show it: active = inhibition above about 15%; inconclusive = no clear call, values can overlap the other calls; inactive = below that.

Amino acid sequences for entries named in this document (tags omitted). A change or cut given only in a name is not applied to a line headed by its entry.
UniProt Q9NXA8: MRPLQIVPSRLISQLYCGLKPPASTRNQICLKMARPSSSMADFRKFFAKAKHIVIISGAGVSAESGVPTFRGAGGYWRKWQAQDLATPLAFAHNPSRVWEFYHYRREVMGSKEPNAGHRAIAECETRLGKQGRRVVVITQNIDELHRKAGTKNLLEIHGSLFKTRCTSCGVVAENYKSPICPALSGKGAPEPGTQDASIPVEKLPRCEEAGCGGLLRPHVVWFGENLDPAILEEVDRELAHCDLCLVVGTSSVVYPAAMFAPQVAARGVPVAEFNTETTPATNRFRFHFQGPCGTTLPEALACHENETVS

The compounds below were run against NAD-dependent protein deacylase sirtuin-5, mitochondrial (Homo sapiens) (UniProt Q9NXA8) (assay: SIRT5 desuccinylase inhibitors, primary screen, biochemical, fluorescence imaging, single point, set 5 (AID 652115)). Settings: Purified SirT5, succinyl-peptide AMC, trypsin-coupled fluorescence; at 15 µM; hits give high values.

inhibition, active:
Cc1ccc(S(=O)(=O)N(C)C[C@@H]2OCCCC[C@H](C)Oc3ccc(NS(=O)(=O)c4ccc(F)cc4)cc3C(=O)N([C@H](C)CO)C[C@H]2C)cc1 22.2%
CC(C)CC#Cc1ccc2c(c1)O[C@@H](CN(C)CC1CCOCC1)[C@H](C)CN([C@H](C)CO)S2(=O)=O 16.7%
Cc1ccccc1N1CC(C(=O)O)CC1=O (stereo not given) 28.7%
C/C(N)=C(/C#N)C(=O)CSc1nnc(Nc2ccccc2)s1 18.2%
O=C(C[C@@H]1C[C@H]2c3cc(NC(=O)Nc4ccccc4F)ccc3O[C@H]2[C@H](CO)O1)NCC1CC1 21.9%
O=C(C[C@H]1CC[C@@H](NC(=O)c2ccccc2)[C@H](CO)O1)NCCc1ccncc1 31.9%

inhibition, inconclusive:
COc1cccc(-c2ccc3c(c2)O[C@H](CN(C)C(=O)C2CCCCC2)[C@@H](C)CN([C@@H](C)CO)S3(=O)=O)c1 5.64%
CO[C@H]1CN(C)C(=O)c2cc(NC(=O)c3nc4ccccc4s3)ccc2OC[C@@H](C)N(Cc2ccncc2)C[C@@H]1C 15.6%
COCC#Cc1cnc2c(c1)C(=O)N([C@@H](C)CO)C[C@@H](C)[C@@H](CN(C)C(=O)Nc1c(C)noc1C)O2 16.6%
C[C@H](CO)N1C[C@H](C)[C@H](CN(C)Cc2cccnc2)Oc2ncc(-c3ccc(F)cc3)cc2C1=O 22.5%
C[C@@H]1CN([C@@H](C)CO)S(=O)(=O)c2ccc(/C=C/c3ccccc3)cc2O[C@H]1CN(C)Cc1ccc(C(=O)O)cc1 14.1%
COc1ccccc1-c1cnc2c(c1)C(=O)N([C@H](C)CO)C[C@@H](C)[C@H](CN(C)C(=O)CN(C)C)O2 15.4%
CC(=O)N(C)C[C@H]1Oc2cc(C#C[C@@H](C)O)ccc2S(=O)(=O)N([C@@H](C)CO)C[C@@H]1C 20.4%
Cc1ccc(S(=O)(=O)N(C)C[C@@H]2Oc3cc(-c4cccc(F)c4)ccc3S(=O)(=O)N([C@H](C)CO)C[C@H]2C)cc1 20%
COc1ccc(S(=O)(=O)N(C)C[C@@H]2Oc3cc(-c4ccccc4OC)ccc3S(=O)(=O)N([C@@H](C)CO)C[C@H]2C)cc1 15.8%
C[C@@H](O)C#Cc1ccc2c(c1)O[C@@H](CN(C)C)[C@@H](C)CN([C@@H](C)CO)S2(=O)=O -0.693%
Cc1noc(C)c1NC(=O)Nc1cccc2c1O[C@@H](CN(C)S(C)(=O)=O)[C@@H](C)CN([C@@H](C)CO)C2=O -2.66%
C[C@@H]1CN([C@@H](C)CO)S(=O)(=O)c2ccc(C#Cc3ccccc3)cc2O[C@H]1CN(C)C(=O)Nc1ccccc1 22.2%
COc1cccc(-c2ccc3c(c2)O[C@@H](CN(C)C(=O)C2CCCCC2)[C@@H](C)CN([C@@H](C)CO)S3(=O)=O)c1 5.9%
COc1cccc(-c2ccc3c(c2)O[C@H](CN(C)C(=O)C2CCCCC2)[C@H](C)CN([C@@H](C)CO)S3(=O)=O)c1 0.731%
CC(C)CC#Cc1ccc2c(c1)O[C@H](CN(C)Cc1ccc3c(c1)OCO3)[C@H](C)CN([C@@H](C)CO)S2(=O)=O 18.1%
CCC(=O)N(C)C[C@@H]1Oc2ncc(C#C[C@H](C)O)cc2C(=O)N([C@H](C)CO)C[C@H]1C -1.56%
C[C@H](CO)N1C[C@H](C)[C@@H](CN(C)Cc2ccc(-c3ccccc3)cc2)Oc2ccc(NC(=O)C3CC3)cc2CC1=O 16.6%
Cc1ccc(S(=O)(=O)N(C)C[C@H]2Oc3cc(-c4cccc(F)c4)ccc3S(=O)(=O)N([C@@H](C)CO)C[C@@H]2C)cc1 16%
C[C@@H]1CN([C@@H](C)CO)S(=O)(=O)c2ccc(-c3ccccc3)cc2O[C@H]1CN(C)S(=O)(=O)c1ccccc1F 17.2%
COc1cccc(NC(=O)N(C)C[C@@H]2Oc3cc(C#Cc4ccncc4)ccc3S(=O)(=O)N([C@H](C)CO)C[C@H]2C)c1 3.19%
C[C@H](CO)N1C[C@H](C)[C@@H](CN(C)Cc2ccc(C(=O)O)cc2)Oc2ncc(-c3ccc(C(=O)N(C)C)cc3)cc2C1=O -2.37%
CCCN(C)C[C@@H]1Oc2ncc(-c3ccccc3OC)cc2C(=O)N([C@H](C)CO)C[C@@H]1C -1.12%
C[C@@H]1CN([C@@H](C)CO)C(=O)Cc2cc(NC(=O)C3CC3)ccc2O[C@H]1CN(C)Cc1ccc(-c2ccccc2)cc1 2.16%
Cc1ccc(S(=O)(=O)N(C)C[C@@H]2Oc3cc(-c4cccc(F)c4)ccc3S(=O)(=O)N([C@@H](C)CO)C[C@H]2C)cc1 19.6%
C[C@H](CO)N1C[C@H](C)[C@@H](CN(C)Cc2ccccn2)Oc2cc(-c3cccc(C#N)c3)ccc2S1(=O)=O 15.9%
CC(=O)N(C)C[C@@H]1Oc2cc(C#C[C@@H](C)O)ccc2S(=O)(=O)N([C@H](C)CO)C[C@@H]1C -2.15%
CC(C)CC#Cc1cnc2c(c1)C(=O)N([C@H](C)CO)C[C@@H](C)[C@H](CN(C)CC1CCOCC1)O2 1.6%
CC(C)CC#Cc1ccc2c(c1)O[C@H](CN(C)CC1CCOCC1)[C@H](C)CN([C@@H](C)CO)S2(=O)=O 6.85%
C[C@@H]1CN([C@H](C)CO)S(=O)(=O)c2ccc(C#Cc3ccccn3)cc2O[C@H]1CN(C)Cc1cccc(F)c1 -1.51%
O=C(C[C@H]1C[C@@H]2c3cc(NS(=O)(=O)c4ccc(F)cc4)ccc3O[C@@H]2[C@H](CO)O1)NCc1ccc(-c2ccccc2)cc1 16.6%
CCC(=O)N(C)C[C@@H]1Oc2cc(C#C[C@H](C)O)ccc2S(=O)(=O)N([C@H](C)CO)C[C@@H]1C 25.4%
C[C@H]1CN([C@@H](C)CO)C(=O)c2cc(C#CC3CC3)cnc2O[C@H]1CN(C)Cc1ccncc1 31.7%
C[C@@H]1CN([C@H](C)CO)C(=O)c2cc(C#CCc3ccccc3)cnc2O[C@@H]1CN(C)Cc1ccccn1 15.5%
C/C=C/c1cnc2c(c1)C(=O)N([C@@H](C)CO)C[C@@H](C)[C@@H](CN(C)C(=O)Nc1cccc(OC)c1)O2 -0.915%
C[C@@H]1CN([C@H](C)CO)S(=O)(=O)c2ccc(/C=C/c3ccccc3)cc2O[C@@H]1CN(C)Cc1ccc(C(=O)O)cc1 17.2%
C[C@@H]1CN([C@@H](C)CO)C(=O)c2cc(-c3cncnc3)cnc2O[C@H]1CN(C)CC1CCOCC1 -0.571%
C/C=C/c1ccc2c(c1)O[C@@H](CN(C)Cc1ccccc1F)[C@H](C)CN([C@H](C)CO)S2(=O)=O 13.2%
Cc1ccc(S(=O)(=O)N(C)C[C@H]2Oc3cc(-c4cccc(F)c4)ccc3S(=O)(=O)N([C@H](C)CO)C[C@@H]2C)cc1 20.1%
CC(C)CC#Cc1ccc2c(c1)O[C@H](CN(C)Cc1ccc(F)cc1)[C@H](C)CN([C@@H](C)CO)S2(=O)=O 9.3%
COc1ccc(NC(=O)Nc2cccc3c2O[C@H](CN(C)Cc2ccc(Oc4ccccc4)cc2)[C@@H](C)CN([C@H](C)CO)C3=O)cc1 11.7%
CC(C)CC#Cc1ccc2c(c1)O[C@H](CN(C)Cc1ccc3c(c1)OCO3)[C@@H](C)CN([C@@H](C)CO)S2(=O)=O 21.7%
C[C@H]1CN([C@@H](C)CO)C(=O)c2cc(Br)cnc2O[C@H]1CN(C)C(=O)c1cccnc1 -1.99%
C[C@H](CO)N1C[C@H](C)[C@@H](CN(C)C(=O)c2cccnc2)Oc2ncc(Br)cc2C1=O 7.57%
C[C@@H]1CN([C@@H](C)CO)C(=O)c2cc(-c3ccc(F)cc3)cnc2O[C@H]1CN(C)Cc1ccccn1 21.3%

Retrieved by structure from above, 2 records:
inhibition, inconclusive:
C[C@@H](O)C#Cc1ccc2c(c1)O[C@@H](CN(C)C)[C@@H](C)CN([C@@H](C)CO)S2(=O)=O -0.693%
CCC(=O)N(C)C[C@@H]1Oc2cc(C#C[C@H](C)O)ccc2S(=O)(=O)N([C@H](C)CO)C[C@@H]1C 25.4%

Quoted from the listing (three entries):
inhibition, inconclusive:
COc1cccc(-c2ccc3c(c2)O[C@H](CN(C)C(=O)C2CCCCC2)[C@H](C)CN([C@@H](C)CO)S3(=O)=O)c1 0.731%
CC(C)CC#Cc1ccc2c(c1)O[C@H](CN(C)Cc1ccc3c(c1)OCO3)[C@H](C)CN([C@@H](C)CO)S2(=O)=O 18.1%
CCC(=O)N(C)C[C@@H]1Oc2ncc(C#C[C@H](C)O)cc2C(=O)N([C@H](C)CO)C[C@H]1C -1.56%

Following part.

inhibition, inactive:
CCOc1ccccc1C(=O)OCC(=O)NCCc1ccc(OC)cc1 -5.94%
CC(C)(C)NC(=O)CCN(/N=C/c1ccncc1)C1=NS(=O)(=O)c2ccccc21 3.44%
COc1ccc(-c2cn(CC[C@H]3CC[C@@H](NS(=O)(=O)c4ccccc4C)[C@H](CO)O3)nn2)cc1 -0.031%
Cc1ccc(C(=O)N2CCN(c3ccc4c(c3)C3CC4CCN3C(=O)OCc3ccccc3)CC2)cc1 (stereo not given) -2.33%
C(=N\N1CCN(c2ccccc2)CC1)/c1ccccc1 -0.992%
CCC(=O)N[C@H]1C=C[C@H](CC(=O)NCc2ccccc2OC)O[C@@H]1CO 2.9%
CCN1[C@@H]2c3ccc(C4=CCCCC4)c(=O)n3C[C@H]1[C@H](CO)[C@H]2C(=O)NCc1ccccn1 -14.9%
O=C(Cc1cccc(NC(=O)C2CCCN(C(=O)c3ccccc3)C2)c1)Nc1ccc(C(=O)N2CCOCC2)cc1 (stereo not given) 0.434%
CO[C@@H]1CN(C)C(=O)c2cc(NC(=O)Nc3ccccc3F)ccc2OC[C@@H](C)N(C)C[C@@H]1C -0.559%
COc1cc(/C=C(\C#N)C(N)=O)ccc1OS(=O)(=O)c1ccc(C)cc1 -7.74%
CCOC(=O)C(C#N)=C1CCN(Cc2ccccc2)CC1 -0.15%
N#C[C@@H]1[C@H](c2ccccc2-c2ccccc2)[C@H](CO)N1C(=O)Cc1cccnc1 3.84%
Cc1nnc2n(C)c(=O)c3c4c(sc3n12)COC(C)(C)C4 -0.074%
O=C(C[C@H]1CC[C@H]2[C@@H](COC[C@H](O)CN2Cc2nccs2)O1)NCc1ccc(Cl)cc1 -0.527%
O=C(Nc1ccccc1F)N[C@@H]1CC[C@H](CCNC(=O)C2CCCCC2)O[C@@H]1CO 0.876%
CCCN(C)C[C@@H]1OCCCC[C@@H](C)Oc2ccc(NS(=O)(=O)c3ccc(Cl)cc3)cc2C(=O)N([C@@H](C)CO)C[C@@H]1C 3.09%
O=C(Nc1cccc(C(F)(F)F)c1)c1cc2ncc(Br)cn2n1 6.16%
Cc1nn(C(C)(C)C)c(C)c1/C=N/OC(=O)Nc1ccc(Cl)cc1 -0.683%
CN(C)CC#Cc1ccc([C@@H]2[C@@H](CO)N3CCCCN(C(=O)c4ccc5c(c4)OCO5)C[C@@H]23)cc1 -0.569%
Cc1noc(NC(=O)c2cccc(Cl)c2Cl)c1C#N 2.54%
